Test results as given in the supplement of paper PMC3682954.
Structures can show the parent of a compound that is named as a salt. ± gives the standard deviation of the averaged measurements. Some of the results follow. Repeats are few or missing, and single values can be far off.

System: RAW 264.7
Assay: HMGB1-induced TNF-alpha production relative to HMGB1-stimulated control; higher = more TNF-alpha secretion (less inhibition)
Conditions: stimulus: HMGB1 5 ug/ml, 18 h
[1] = compound concentration: 1 ug/ml

Structure (SMILES) | HMGB1-induced TNF-alpha production (compound concentration: 3 uM) [%] | HMGB1-induced TNF-alpha production [1] [%]
N[C@@H](CSSC[C@H](N)C(=O)O)C(=O)O | 59.6 | –
CC1COc2c(N3CCN(C)CC3)c(F)cc3c(=O)c(C(=O)O)cn1c23 (stereo unspecified) | 82.2 | –
CC1COc2c(N3CCN(C)CC3)c(F)cc3c(=O)c(C(=O)O)cn1c23 (stereo unspecified) [Ofloxacin] | 101 ± 15 | –
O=C(O)/C=C/c1cnc[nH]1 [4-Imidazoleacrylic acid] | 112 | –
O=C(O)/C=C/c1cnc[nH]1 [Urocanic acid] | – | 88.4
C[C@H](CCC(=O)O)[C@H]1CC[C@H]2[C@@H]3CC[C@@H]4C[C@H](O)CC[C@]4(C)[C@H]3CC[C@]12C [Lithocholic acid] | 98.8 | 77.6
CC(=O)SCC(Cc1ccccc1)C(=O)NCC(=O)OCc1ccccc1 (stereo unspecified) | 99.6 | –
CC(=O)SCC(Cc1ccccc1)C(=O)NCC(=O)OCc1ccccc1 (stereo unspecified) [Racecadotril] | 94.6 ± 22 | –
CC(C)(C)OC(=O)N[C@@H](Cc1cnc[nH]1)C(=O)O [N-alpha-(tert-Butoxycarbonyl)-L-histidine] | – | 65.3
COC(=O)C1=C(C)NC(C)=C(C(=O)OC(C)C)C1c1cccc2nonc12 (stereo unspecified) [Isradipine] | 82.4 | –
COC(=O)C1=C(C)NC(C)=C(C(=O)OC(C)C)C1c1cccc2nonc12 (stereo unspecified) | 108 | –
Cc1cn(C2CC(O)C(COP(=O)(O)OP(=O)(O)OP(=O)(O)O)O2)c(=O)[nH]c1=O (stereo unspecified) [Thymidine 5'-triphosphate sodium salt] | – | 81.1
CC(C)NCC(O)c1cc(O)cc(O)c1 (stereo unspecified) [Metaproterenol sulfate, orciprenaline sulfate] | 26.4 | –
CC(C)NCC(O)c1cc(O)cc(O)c1 (stereo unspecified) [Metaproterenol hemisulfate] | 56.4 | –
CC(C)NCC(O)c1cc(O)cc(O)c1 (stereo unspecified) | 40.7 | –
O=[N+]([O-])c1cc2nc(O)c(O)nc2cc1[N+](=O)[O-] | 87.4 | –
CC(=O)/C(C)=N/O [2,3-Butanedione monoxime] | 98.3 | –
CCCCCCCCCCCCCCSCC(=O)O [Tetradecylthioacetic acid] | 101 | –
CCCn1cnc2c1c(=O)n(CCCCC(C)=O)c(=O)n2C | 78.7 | –
CCCn1cnc2c1c(=O)n(CCCCC(C)=O)c(=O)n2C [Propentofylline] | 112 | –
CC(C)(CO)Cc1cc(C(C)(C)C)c(O)c(C(C)(C)C)c1 | 76.6 | –
O=C(O)CN(CCN(CC(=O)O)CC(=O)O)CCN(CC(=O)O)CC(=O)O [Pentetic acid] | 102 | –
O=C(O)CN(CCN(CC(=O)O)CC(=O)O)CCN(CC(=O)O)CC(=O)O | 90.2 | –
O=C(O)CN(CCN(CC(=O)O)CC(=O)O)CCN(CC(=O)O)CC(=O)O [Diethylenetriaminepentaacetic acid] | 75.9 | –
C#CCN(C)CCCOc1ccc(Cl)cc1Cl [Clorgyline hydrochloride] | 85.5 ± 32 | –
C#CCN(C)CCCOc1ccc(Cl)cc1Cl | 78 | –
Cn1c(=O)c2c(ncn2CCO)n(C)c1=O [Etofylline] | 90.3 | –
COc1ccccc1N1CCN(CCCNc2cc(=O)n(C)c(=O)n2C)CC1 | 89.6 ± 25 | –

Shown as comma-separated lines: entries from further up
Structure (SMILES),HMGB1-induced TNF-alpha production (compound concentration: 3 uM) [%],HMGB1-induced TNF-alpha production [1] [%]
CC(=O)SCC(Cc1ccccc1)C(=O)NCC(=O)OCc1ccccc1 (stereo unspecified) [Racecadotril],94.6 ± 22,–
CC(C)NCC(O)c1cc(O)cc(O)c1 (stereo unspecified),40.7,–

Additional records.

Structure (SMILES) | HMGB1-induced TNF-alpha production (compound concentration: 3 uM) [%] | HMGB1-induced TNF-alpha production [1] [%]
COc1ccccc1N1CCN(CCCNc2cc(=O)n(C)c(=O)n2C)CC1 [Urapidil hydrochloride] | 94.5 ± 2.4 | –
CN/C(=N\c1ccc(C2=NNC(=O)CC2C)cc1)NC#N (stereo unspecified) [Siguazodan] | 85.5 | –
Nc1ccn([C@H]2C[C@H](O)[C@@H](COP(=O)(O)O)O2)c(=O)n1 [2'-Deoxycytidine 5'-monophosphate] | – | 77.7
O=C(CCCN1CCC(O)(c2cccc(C(F)(F)F)c2)CC1)c1ccc(F)cc1 [Trifluperidol] | 90.3 | –
O=C(CCCN1CCC(O)(c2cccc(C(F)(F)F)c2)CC1)c1ccc(F)cc1 [Trifluperidol hydrochloride] | 98.4 | –
O=c1c2ccccc2nc2n1CCc1c-2[nH]c2ccccc12 [Rutaecarpine] | 112 | –
O=C(/C=C/C=C/c1ccc2c(c1)OCO2)N1CCCCC1 | 90.6 | –
CCC(=O)OCC(=O)[C@@]1(OC(=O)CC)[C@@H](C)C[C@H]2[C@@H]3CCC4=CC(=O)C=C[C@]4(C)[C@@]3(Cl)[C@@H](O)C[C@@]21C [Beclomethasone dipropionate] | 53.8 | –
CCC(=O)OCC(=O)[C@@]1(OC(=O)CC)[C@@H](C)C[C@H]2[C@@H]3CCC4=CC(=O)C=C[C@]4(C)[C@@]3(Cl)[C@@H](O)C[C@@]21C | 43.3 | –
COCC(=O)O[C@]1(CCN(C)CCCc2nc3ccccc3[nH]2)CCc2cc(F)ccc2[C@@H]1C(C)C [Mibefradil dihydrochloride] | 116 | –
CCN(CC)Cc1cc(Nc2ccnc3cc(Cl)ccc23)ccc1O | 79.1 | –
CCN(CC)Cc1cc(Nc2ccnc3cc(Cl)ccc23)ccc1O [Amodiaquin dihydrochloride dihydrate] | 54.5 | –
CCN(CC)CCNC(=O)COc1ccc(OC)cc1 | 102 | –
CCN(CC)CCNC(=O)COc1ccc(OC)cc1 [Mefexamide hydrochloride] | 92.6 | –
Cc1nc2n(c(=O)c1CCN1CCC(c3noc4cc(F)ccc34)CC1)CCCC2O (stereo unspecified) [Paliperidone] | 87.7 | –
CC(=O)OCC1=C(C(=O)O)N2C(=O)[C@@H](NC(=O)Cc3cccs3)[C@H]2SC1 [Cephalothin sodium salt] | 71.7 | –
CC(=O)OCC1=C(C(=O)O)N2C(=O)[C@@H](NC(=O)Cc3cccs3)[C@H]2SC1 | 83.4 | –
CC(=O)OCC1=C(C(=O)O)N2C(=O)[C@@H](NC(=O)Cc3cccs3)[C@H]2SC1 [Cephalothin sodium] | 78.4 | –
CC(C)(C)NCC(O)c1ccc(O)c(CO)c1 (racemic) | 37.3 | –
CCOc1ccc(NC(=O)CC(C)O)cc1 (stereo unspecified) | 79.8 | –
Clc1ccc(C(Cn2ccnc2)OCc2csc3c(Cl)cccc23)c(Cl)c1 (stereo unspecified) [Sertaconazole] | 118 | –
Clc1ccc(C(Cn2ccnc2)OCc2csc3c(Cl)cccc23)c(Cl)c1 (stereo unspecified) [Sertaconazole nitrate] | 114 | –
COc1c(O)cc2oc3cc(O)c(CC=C(C)C)c(O)c3c(=O)c2c1CC=C(C)C [Mangostin] | – | 52.1
C=CCCCCCCCCC(=O)O | 85.5 | –
CC1(C)S[C@@H]2[C@H](NC(=O)Cc3ccccc3)C(=O)N2[C@H]1C(=O)O [Benzylpenicillin sodium] | 121 | –
CC1(C)S[C@@H]2[C@H](NC(=O)Cc3ccccc3)C(=O)N2[C@H]1C(=O)O [Benzathine benzylpenicillin] | 88.5 | –
CC1(C)S[C@@H]2[C@H](NC(=O)Cc3ccccc3)C(=O)N2[C@H]1C(=O)O | 118 | –
